Data as given in paper PMC6851102.
Results are given in words; binding and its absence hold for the method and conditions named. For some assays here: Binding seen in cells or lysates may run through a third protein. Some results given as binding are weak or reduced against the parent protein; the word gives no strength. For some assays here: Tags and fused reporters may be left off the sequences shown.

Sequences of proteins named here, by UniProt entry; tags and fusion partners are left off.
UniProt Q14839: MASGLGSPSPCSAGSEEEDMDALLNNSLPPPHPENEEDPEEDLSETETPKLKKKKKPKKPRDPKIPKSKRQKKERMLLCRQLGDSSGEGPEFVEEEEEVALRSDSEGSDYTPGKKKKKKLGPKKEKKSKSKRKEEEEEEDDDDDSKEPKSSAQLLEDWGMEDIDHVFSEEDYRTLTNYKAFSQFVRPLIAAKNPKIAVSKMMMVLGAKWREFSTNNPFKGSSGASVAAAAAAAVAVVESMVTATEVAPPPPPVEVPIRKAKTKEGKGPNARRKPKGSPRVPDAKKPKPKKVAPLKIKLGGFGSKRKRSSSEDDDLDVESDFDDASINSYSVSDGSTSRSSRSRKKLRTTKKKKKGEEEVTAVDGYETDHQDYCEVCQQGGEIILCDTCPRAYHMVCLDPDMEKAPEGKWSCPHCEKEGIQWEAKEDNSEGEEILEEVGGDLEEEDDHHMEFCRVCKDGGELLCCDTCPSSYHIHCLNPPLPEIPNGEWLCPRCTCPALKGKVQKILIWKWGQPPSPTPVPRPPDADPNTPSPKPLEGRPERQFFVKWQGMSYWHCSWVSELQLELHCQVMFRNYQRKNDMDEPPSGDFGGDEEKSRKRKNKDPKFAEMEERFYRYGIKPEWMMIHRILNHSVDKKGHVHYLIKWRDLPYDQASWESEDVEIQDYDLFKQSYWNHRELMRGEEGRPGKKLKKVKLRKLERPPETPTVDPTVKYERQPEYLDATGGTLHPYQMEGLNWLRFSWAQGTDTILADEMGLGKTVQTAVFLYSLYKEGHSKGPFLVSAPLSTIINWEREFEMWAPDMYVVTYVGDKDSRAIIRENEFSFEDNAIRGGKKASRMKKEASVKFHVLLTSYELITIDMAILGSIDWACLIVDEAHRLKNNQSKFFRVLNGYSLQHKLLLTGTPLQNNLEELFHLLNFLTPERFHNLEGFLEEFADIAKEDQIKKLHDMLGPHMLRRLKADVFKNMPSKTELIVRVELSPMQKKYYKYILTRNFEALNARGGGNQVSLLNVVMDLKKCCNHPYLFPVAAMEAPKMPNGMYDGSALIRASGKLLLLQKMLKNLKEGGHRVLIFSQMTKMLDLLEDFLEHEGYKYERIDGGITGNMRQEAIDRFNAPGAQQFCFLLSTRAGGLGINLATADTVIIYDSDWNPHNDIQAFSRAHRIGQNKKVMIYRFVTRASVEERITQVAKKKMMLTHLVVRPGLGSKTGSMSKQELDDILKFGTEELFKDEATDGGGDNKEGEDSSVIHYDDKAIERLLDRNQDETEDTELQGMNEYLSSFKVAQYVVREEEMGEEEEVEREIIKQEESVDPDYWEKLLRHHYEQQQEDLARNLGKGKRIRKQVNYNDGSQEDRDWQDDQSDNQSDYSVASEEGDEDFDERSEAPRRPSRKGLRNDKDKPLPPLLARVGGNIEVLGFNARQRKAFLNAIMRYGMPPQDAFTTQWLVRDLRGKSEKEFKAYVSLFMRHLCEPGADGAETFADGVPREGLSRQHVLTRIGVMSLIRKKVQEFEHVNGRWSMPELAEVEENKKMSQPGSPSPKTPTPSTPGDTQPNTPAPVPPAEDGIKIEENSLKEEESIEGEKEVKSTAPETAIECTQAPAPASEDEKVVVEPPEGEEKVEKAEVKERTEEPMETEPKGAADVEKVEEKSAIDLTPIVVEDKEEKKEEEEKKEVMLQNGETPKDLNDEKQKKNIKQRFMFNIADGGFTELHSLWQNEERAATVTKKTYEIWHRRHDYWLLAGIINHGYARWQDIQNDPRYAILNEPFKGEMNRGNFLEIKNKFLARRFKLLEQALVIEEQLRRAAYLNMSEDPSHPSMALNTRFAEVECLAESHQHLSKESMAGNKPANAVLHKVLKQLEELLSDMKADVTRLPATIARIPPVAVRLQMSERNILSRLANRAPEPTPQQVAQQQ
UniProt Q13547: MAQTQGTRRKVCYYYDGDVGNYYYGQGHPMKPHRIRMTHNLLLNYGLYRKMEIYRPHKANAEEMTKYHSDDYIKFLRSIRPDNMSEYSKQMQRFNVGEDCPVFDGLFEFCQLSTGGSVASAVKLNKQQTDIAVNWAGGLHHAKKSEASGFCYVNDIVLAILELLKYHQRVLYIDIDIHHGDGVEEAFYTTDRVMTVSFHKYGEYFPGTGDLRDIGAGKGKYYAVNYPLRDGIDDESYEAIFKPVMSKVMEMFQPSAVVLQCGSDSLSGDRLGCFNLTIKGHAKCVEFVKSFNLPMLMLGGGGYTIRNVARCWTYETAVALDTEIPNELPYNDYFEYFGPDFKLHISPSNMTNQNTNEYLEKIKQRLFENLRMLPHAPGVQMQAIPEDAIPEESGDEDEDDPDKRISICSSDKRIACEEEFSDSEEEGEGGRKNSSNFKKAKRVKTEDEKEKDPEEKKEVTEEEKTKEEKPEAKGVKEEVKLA
UniProt O09106: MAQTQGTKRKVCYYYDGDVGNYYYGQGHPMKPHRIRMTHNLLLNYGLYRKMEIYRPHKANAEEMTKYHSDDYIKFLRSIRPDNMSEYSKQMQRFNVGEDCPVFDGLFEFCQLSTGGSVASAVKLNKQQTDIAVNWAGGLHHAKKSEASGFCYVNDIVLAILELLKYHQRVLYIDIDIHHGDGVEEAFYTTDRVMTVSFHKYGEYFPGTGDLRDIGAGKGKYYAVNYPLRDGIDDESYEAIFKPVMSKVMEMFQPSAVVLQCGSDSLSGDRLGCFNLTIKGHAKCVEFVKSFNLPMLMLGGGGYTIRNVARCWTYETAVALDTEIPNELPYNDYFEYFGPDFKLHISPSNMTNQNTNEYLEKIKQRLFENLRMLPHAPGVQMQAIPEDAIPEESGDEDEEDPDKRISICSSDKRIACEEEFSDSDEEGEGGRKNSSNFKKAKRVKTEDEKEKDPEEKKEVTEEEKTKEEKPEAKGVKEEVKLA
UniProt Q92769: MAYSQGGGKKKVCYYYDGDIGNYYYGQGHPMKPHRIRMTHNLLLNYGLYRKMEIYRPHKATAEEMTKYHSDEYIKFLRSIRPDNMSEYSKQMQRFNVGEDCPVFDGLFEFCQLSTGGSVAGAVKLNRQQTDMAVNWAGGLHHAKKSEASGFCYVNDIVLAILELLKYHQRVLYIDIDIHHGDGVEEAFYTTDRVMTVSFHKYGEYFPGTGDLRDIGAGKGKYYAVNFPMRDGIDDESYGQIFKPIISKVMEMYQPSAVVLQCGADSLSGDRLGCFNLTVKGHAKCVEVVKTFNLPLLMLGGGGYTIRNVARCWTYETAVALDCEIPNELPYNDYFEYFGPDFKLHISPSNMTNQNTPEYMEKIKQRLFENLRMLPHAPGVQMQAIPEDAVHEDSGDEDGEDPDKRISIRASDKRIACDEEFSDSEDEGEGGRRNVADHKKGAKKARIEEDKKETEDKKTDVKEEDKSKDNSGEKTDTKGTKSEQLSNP
UniProt Q8K4B0: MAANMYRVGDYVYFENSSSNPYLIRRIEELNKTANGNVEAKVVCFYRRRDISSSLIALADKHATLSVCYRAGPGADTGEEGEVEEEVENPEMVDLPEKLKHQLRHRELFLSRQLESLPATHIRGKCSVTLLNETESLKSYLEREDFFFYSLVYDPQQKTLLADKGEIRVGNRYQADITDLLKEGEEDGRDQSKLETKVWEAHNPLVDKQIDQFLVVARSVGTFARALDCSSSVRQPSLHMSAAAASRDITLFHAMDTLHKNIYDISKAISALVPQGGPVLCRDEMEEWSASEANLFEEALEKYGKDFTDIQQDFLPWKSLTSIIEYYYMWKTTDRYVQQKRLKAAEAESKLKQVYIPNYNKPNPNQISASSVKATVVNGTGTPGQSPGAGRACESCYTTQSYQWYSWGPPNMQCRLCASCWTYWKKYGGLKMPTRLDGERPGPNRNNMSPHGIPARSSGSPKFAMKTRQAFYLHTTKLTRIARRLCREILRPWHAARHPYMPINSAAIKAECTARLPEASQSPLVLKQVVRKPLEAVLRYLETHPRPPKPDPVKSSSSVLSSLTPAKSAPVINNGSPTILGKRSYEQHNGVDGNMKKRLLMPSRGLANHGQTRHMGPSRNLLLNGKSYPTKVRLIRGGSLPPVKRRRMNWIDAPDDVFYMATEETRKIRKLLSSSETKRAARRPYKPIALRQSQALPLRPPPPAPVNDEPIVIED

Columns and labels:
[1] = target: T1, ZEB1, endogenous in human NSCLC cell lines (human (endogenous in H157 and H1299)) (UniProt P37275); experiment: SEC; nuclear lysates of H157 and 344SQ on a Superose column, 60 fractions, SDS-PAGE and immunoblot; co-elution in fractions 25-35, above 669 kDa
T1 sequence: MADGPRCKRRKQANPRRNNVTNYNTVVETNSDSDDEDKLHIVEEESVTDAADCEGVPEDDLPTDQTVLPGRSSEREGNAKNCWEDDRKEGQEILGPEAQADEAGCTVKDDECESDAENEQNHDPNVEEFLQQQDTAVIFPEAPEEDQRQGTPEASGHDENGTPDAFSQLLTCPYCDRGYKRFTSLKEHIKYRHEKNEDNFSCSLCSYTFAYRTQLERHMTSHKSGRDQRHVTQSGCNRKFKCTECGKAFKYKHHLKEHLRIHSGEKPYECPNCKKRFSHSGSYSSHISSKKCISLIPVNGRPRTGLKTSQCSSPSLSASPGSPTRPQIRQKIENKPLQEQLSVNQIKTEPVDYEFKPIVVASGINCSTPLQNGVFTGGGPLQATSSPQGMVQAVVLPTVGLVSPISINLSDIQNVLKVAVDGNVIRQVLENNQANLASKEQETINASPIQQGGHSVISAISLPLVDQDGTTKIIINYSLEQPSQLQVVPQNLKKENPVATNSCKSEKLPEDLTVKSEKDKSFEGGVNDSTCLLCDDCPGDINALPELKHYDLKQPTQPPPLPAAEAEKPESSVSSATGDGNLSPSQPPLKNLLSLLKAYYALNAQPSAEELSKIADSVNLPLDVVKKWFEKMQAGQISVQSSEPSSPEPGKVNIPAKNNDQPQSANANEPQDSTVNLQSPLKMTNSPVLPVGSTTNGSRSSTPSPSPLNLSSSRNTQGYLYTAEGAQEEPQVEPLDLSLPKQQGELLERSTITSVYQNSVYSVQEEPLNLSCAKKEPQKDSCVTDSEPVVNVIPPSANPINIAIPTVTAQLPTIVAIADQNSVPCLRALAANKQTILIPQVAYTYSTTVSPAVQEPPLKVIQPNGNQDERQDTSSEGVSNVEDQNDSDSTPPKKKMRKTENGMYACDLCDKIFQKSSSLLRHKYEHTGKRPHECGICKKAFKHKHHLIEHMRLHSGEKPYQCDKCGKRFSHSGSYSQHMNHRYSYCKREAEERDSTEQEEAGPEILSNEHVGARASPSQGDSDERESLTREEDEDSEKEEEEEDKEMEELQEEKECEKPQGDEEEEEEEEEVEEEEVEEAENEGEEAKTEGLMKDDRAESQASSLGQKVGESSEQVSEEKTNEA

[2] = target: T1, ZEB1, endogenous in human NSCLC cell lines (human (endogenous in H157 and H1299)); experiment: proximity ligation; endogenous proteins in fixed, permeabilised H157, H1299, 344SQ and 531LN2 cells; primary antibodies to ZEB1 and a NuRD member; Duolink In Situ Red Starter Mouse/Rabbit kit; confocal microscopy
[3] = target: T2, FlagBirA*-ZEB1 (human ZEB1 with an N-terminal FlagBirA* tag) (human) (UniProt P37275); experiment: co-IP; HEK293 Flp-In cells expressing FlagBirA*-ZEB1; 500 ug crude lysate with primary antibody overnight at 4 °C, Protein A/G PLUS-Agarose, washes with PBS and 50 mM Tris pH 7.4, 150 mM NaCl, 0.1% NP-40; Western blot
T2 sequence: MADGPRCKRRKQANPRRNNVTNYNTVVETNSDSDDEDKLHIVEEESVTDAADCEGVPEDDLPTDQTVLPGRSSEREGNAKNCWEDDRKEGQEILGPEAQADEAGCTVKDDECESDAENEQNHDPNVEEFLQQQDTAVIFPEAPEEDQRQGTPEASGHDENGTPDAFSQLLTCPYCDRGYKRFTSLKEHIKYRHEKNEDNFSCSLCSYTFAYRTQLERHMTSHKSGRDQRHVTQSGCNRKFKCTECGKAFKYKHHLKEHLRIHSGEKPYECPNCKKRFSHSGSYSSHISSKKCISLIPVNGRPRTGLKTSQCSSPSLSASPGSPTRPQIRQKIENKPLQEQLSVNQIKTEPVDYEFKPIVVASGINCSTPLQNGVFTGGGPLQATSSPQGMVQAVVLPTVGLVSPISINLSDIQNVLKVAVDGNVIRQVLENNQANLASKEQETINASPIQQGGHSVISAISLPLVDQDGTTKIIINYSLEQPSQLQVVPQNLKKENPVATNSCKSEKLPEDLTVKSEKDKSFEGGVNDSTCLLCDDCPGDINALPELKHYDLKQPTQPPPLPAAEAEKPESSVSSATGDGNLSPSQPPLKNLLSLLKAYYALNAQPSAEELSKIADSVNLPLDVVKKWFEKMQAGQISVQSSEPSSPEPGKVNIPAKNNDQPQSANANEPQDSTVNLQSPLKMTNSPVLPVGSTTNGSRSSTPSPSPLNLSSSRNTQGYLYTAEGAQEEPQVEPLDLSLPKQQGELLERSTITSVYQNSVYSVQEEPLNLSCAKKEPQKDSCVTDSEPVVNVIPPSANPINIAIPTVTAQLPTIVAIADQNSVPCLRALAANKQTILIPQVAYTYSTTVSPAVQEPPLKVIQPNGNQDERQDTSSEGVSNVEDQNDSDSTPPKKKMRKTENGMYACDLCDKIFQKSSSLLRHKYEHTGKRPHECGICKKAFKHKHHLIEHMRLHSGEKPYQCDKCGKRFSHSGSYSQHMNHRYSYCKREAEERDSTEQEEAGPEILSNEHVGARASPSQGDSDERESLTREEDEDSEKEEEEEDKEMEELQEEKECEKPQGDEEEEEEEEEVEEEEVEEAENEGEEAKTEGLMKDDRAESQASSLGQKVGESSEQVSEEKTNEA

[4] = target: T3, GFP-conjugated ZEB1 expressed in 344SQ (UniProt P37275); experiment: co-IP; 344SQ murine cells expressing GFP-ZEB1; 500 ug crude lysate with primary antibody overnight at 4 °C, Protein A/G PLUS-Agarose; Western blot
T3 sequence: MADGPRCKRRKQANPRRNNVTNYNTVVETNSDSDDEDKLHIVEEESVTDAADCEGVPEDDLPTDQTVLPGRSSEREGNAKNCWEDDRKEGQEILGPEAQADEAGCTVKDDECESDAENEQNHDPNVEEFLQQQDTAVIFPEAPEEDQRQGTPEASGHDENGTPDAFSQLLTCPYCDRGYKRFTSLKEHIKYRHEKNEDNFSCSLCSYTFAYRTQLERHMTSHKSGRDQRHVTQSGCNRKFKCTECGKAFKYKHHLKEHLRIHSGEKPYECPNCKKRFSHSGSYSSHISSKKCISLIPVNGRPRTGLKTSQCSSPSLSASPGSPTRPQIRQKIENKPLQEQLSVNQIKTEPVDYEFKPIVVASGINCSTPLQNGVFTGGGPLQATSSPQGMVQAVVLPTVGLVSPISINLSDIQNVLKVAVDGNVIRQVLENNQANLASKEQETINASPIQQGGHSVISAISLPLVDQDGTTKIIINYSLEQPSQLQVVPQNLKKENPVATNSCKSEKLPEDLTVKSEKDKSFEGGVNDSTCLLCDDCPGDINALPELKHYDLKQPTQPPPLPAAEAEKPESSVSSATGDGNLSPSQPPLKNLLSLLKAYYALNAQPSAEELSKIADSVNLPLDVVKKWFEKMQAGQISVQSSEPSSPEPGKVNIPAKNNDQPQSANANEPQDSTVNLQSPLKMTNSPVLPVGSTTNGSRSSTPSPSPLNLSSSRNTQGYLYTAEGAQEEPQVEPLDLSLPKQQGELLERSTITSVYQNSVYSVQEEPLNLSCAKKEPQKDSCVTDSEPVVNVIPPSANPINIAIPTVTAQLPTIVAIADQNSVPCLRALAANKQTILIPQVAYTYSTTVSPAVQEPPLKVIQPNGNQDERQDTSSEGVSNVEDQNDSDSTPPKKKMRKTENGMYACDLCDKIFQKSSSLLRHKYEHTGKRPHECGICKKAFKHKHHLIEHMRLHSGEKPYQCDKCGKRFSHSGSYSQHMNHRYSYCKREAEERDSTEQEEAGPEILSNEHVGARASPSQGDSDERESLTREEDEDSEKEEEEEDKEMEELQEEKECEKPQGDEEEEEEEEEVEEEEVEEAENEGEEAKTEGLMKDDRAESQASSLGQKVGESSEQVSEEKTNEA

| binding [1] | binding [2] | binding [3] | binding [4] | Substance |
| --- | --- | --- | --- | --- |
| binds | binds |  |  | CHD4 (chromodomain helicase DNA-binding protein 4), human, endogenous (from UniProt Q14839 1-1912) |
| binds | binds | binds |  | HDAC1 (histone deacetylase 1), human, endogenous (from UniProt Q13547 1-482) |

The next lines start with the substance.

| Substance | binding [1] | binding [2] | binding [3] | binding [4] |
| --- | --- | --- | --- | --- |
| HDAC1, murine, endogenous (from UniProt O09106 1-482) |  |  |  | binds |
| HDAC2 (histone deacetylase 2), human, endogenous (from UniProt Q92769 1-488) |  | binds |  |  |
| MTA1, murine, endogenous (from UniProt Q8K4B0 1-715) |  |  |  | binds |
